In publication PMC4564097:
No constants are given. Whether binding was seen depends on the method and setting. In cells and extracts the contact can be indirect. Some results given as binding are weak or reduced against the parent protein; the word gives no strength.

By UniProt entry, the sequences of proteins in these tests, tags left out.
UniProt Q92905: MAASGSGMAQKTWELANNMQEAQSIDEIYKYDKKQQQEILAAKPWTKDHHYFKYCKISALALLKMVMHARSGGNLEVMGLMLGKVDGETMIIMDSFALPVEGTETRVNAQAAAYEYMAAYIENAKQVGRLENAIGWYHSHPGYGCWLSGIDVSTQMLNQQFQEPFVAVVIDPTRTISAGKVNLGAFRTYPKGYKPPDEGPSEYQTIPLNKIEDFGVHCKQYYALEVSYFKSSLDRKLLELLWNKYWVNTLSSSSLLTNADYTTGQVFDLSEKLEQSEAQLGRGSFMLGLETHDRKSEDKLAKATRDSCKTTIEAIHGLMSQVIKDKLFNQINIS
UniProt Q16665: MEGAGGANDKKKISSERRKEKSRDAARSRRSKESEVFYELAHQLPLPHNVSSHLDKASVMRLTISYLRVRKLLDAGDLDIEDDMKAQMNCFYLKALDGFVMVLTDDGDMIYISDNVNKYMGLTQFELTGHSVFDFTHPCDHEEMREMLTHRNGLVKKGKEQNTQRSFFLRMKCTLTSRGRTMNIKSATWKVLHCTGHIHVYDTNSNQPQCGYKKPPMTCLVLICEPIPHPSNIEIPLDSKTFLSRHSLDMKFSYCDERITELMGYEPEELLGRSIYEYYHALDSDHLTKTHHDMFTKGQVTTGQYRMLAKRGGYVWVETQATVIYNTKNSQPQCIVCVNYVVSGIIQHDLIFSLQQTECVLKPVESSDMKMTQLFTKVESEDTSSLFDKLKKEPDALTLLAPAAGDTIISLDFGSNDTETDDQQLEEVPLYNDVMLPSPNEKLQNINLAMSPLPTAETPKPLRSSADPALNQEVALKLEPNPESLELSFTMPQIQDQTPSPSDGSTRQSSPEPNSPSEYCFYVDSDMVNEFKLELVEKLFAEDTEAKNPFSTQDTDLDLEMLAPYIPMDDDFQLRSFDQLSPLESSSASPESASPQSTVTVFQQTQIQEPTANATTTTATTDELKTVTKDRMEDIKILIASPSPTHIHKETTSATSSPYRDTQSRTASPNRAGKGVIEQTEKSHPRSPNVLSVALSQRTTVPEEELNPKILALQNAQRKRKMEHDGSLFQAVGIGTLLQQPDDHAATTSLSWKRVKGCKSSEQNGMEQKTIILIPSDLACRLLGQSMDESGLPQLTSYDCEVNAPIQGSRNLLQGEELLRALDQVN

Key:
[1] = target: CSN9 signalosome subunit 5 (CSN5) (human (endogenous in HCT116)) (UniProt Q92905); assay: co-IP; HCT116 cells exogenously expressing HA-HIF1α and MIF-2xFLAG, treated with LPA or PBS; co-immunoprecipitation with endogenous CSN5
[2] = target: CSN9 signalosome subunit 5 (CSN5) (human (endogenous in HCT116)) (UniProt Q92905); assay: co-IP; Lysates of HCT116 cells treated with LPA or PBS immunoprecipitated with anti-CSN5 antibody; blot with anti-HIF1α or anti-MIF

Row | Substance | binding [1] | binding [2]
1 | HA-HIF1α (from UniProt Q16665 1-826) | binds | 
2 | hypoxia-inducible factor 1α (HIF1α) (from UniProt Q16665 1-826) |  | binds
